Tests used:
[1] = general procedure: Fmoc solid-phase peptide synthesis; 2-chlorotrityl chloride resin; Rapp S RAM resin (peptide amides, loading 220 µmol/g); Rapp S PHB resins preloaded (pepti); HCTU / diisopropylethyl amine; HATU/diisopropylethyl amine for Fmoc-Bpa-OH; conditions: for cyclisation yield: cyclisation step; for conjugation yield: conjugation step
[2] = general procedure: Fmoc solid-phase peptide synthesis; chlorotrityl resin preloaded with Fmoc-2-Abu-OH; HCTU / diisopropylethyl amine; HATU/diisopropylethyl amine for Fmoc-Bpa-OH; conditions: whole synthesis, scale 200 µmol, TFA salt
[3] = general procedure: Fmoc solid-phase peptide synthesis; TentaGel S PHB resin preloaded with Fmoc-Val-OH; HCTU / diisopropylethyl amine; HATU/diisopropylethyl amine for Fmoc-Bpa-OH; conditions: whole synthesis, scale 150 µmol, TFA salt
[4] = general procedure: Fmoc solid-phase peptide synthesis; 2-chlorotrityl resin; HCTU / diisopropylethyl amine; HATU/diisopropylethyl amine for Fmoc-Bpa-OH; conditions: whole synthesis, TFA salt
[5] = general procedure: Fmoc solid-phase peptide synthesis; 2-chlorotrityl resin preloaded with Fmoc-Dab(Boc)-OH; HCTU / diisopropylethyl amine; HATU/diisopropylethyl amine for Fmoc-Bpa-OH; conditions: whole synthesis, scale 100 µmol, TFA salt
[6] = whole synthesis, scale 150 µmol, TFA salt, run 1
[7] = whole synthesis, scale 150 µmol, TFA salt
[8] = whole synthesis, scale 50 µmole, TFA salt
[9] = whole synthesis, scale 100 µmol, TFA salt, run 1

H-cyclo[Dab-Dab(Boc)-DLeu-Leu-Dab(Boc)-Dab(Boc)-Thr(tBu)]
cyclisation yield ([1]; on crude 18, TFA salt): 61%

6-Methylheptanoyl-Dab-Thr-Dab-cyclo[Dab-Dab-DLeu-Leu-Dab(4-pentinoyl-Bpa-Met(O2)-Oic-Abu)- Dab-Thr]
cyclisation yield ([1]; TFA salt): 66% | step yield ([1]; late stage modification step, based on crude 38, TFA salt): 24%

6-Methylheptanoyl-Dab(T-G-R-A-K-R-R-M-Q-Y-N-R-R-ßAla-norleucinamide(1H-1,2,3-triazol-4- yl)propionyl-Bpa-Met(O2)-Oic-Abu)-Thr-Dab-cyclo[Dab-Dab-DLeu-Leu-Dab-Dab-Thr]
conjugation yield ([1]; TFA salt): 51%

T-G-R-A-K-R-R-M-Q-Y-N-R-R-ßAla-Lys(N3) [4]
isolated yield [1, 6]: 28.1%

Pentinoyl-Bpa-Met(O2)-Oic-Abu-OH
difficulty met ([1]; whole synthesis, TFA salt): Fmoc-Bpa-OH, which displayed sluggish reaction, was coupled with HATU/ diisopropylethyl amine as double coupling | isolated yield ([1]; whole synthesis, scale 200 µmol, TFA salt): 16.7% | isolated mass [2]: 25.0 mg

6-Methylheptanoyl-Dab-Thr-Dab(T-G-R-A-K-R-R-M-Q-Y-N-R-R-ßAla-norleucinamide(1H-1,2,3- triazol-4-yl)propionyl-Bpa-Met(O2)-Oic-Abu)-cyclo[Dab-Dab-DLeu-Leu-Dab-Dab-Thr]
conjugation yield ([1]; based on 27, TFA salt): 53% based on 27%

T-G-R-A-K-R-R-M-Q-Y-N-R-R-ßAla-Lys(N3) [5]
isolated mass [1, 7]: 87.7 mg | isolated yield [1, 6]: 21.5%

Pentinoyl-ßAla-Ala-Ala-Pro-Val-OH
isolated yield [1, 7]: 63% | isolated mass [3]: 48.0 mg

6-Methylheptanoyl-Dab-Thr-Dab-cyclo[Dab-Dab(4-pentinoyl-Bpa-Met(O2)-Oic-Abu)-DLeu-Leu-Dab- Dab-Thr]
cyclisation yield ([1]; based on crude 32, TFA salt): 5.9% based on crude 32%

Fmoc-Dab(NH2)-Dab(Boc)-DLeu-Leu-Dab(Boc)-Dab(Boc)-Thr(tBu)-OH
crude yield ([1]; whole synthesis, scale 50 µmol, TFA salt): 77% | crude mass ([4]; scale 50 µmol): 50.83 mg

6-Methylheptanoyl-Dab-Thr-Dab-cyclo[Dab-Dab-DLeu-Leu-Dab-Dab(4-pentinoyl-Bpa-Met(O2)-Oic-Abu)-Thr]
cyclisation yield ([1]; on crude 44, TFA salt): 67% | step yield ([1]; late stage modification step, based on crude cyclized 44, TFA salt): 19%

6-Methylheptanoyl-Dab(Boc)-Thr(tBu)-Dab(Boc)-Dab(NH2)-Dab(Boc)-DLeu-Leu-Dab(4-pentinoyl- Bpa-Met(O2)-Oic-Abu)-Dab(Boc)-Thr(tBu)-OH
crude yield [1, 8]: 70% | crude mass ([4]; scale 50 µmole): 84.81 mg

T-G-R-A-K-R-R-M-Q-Y-N-R-R-ßAla-Lys(N3)-Cys [8]
isolated mass [1, 9]: 54.8 mg | isolated yield [1, 9]: 19.5%

6-Methylheptanoyl-Dab-Thr-Dab(4-pentinoyl-Bpa-Met(O2)-Oic-Abu)-cyclo[Dab-Dab-DLeu-Leu-Dab- Dab-Thr]
step yield ([1]; late stage modification step, based on 26, TFA salt): 19% based on 26%

T-G-R-A-K-R-R-M-Q-Y-N-R-R-ßAla-Lys(N3)-Cys [9]
isolated mass [1, 9]: 12.3 mg | isolated yield [1, 9]: 4.4%

6-Methylheptanoyl-Dab(4-pentinoyl-Bpa-Met(O2)-Oic-Abu)-Thr-Dab-cyclo[Dab-Dab-DLeu-Leu-Dab- Dab-Thr]
step yield ([1]; coupling step, based on 16, TFA salt): 18% based on 16%

T-G-R-A-K-R-R-M-Q-Y-N-R-R-ßAla-Lys(N3)-Cys(3-succinimidyl-N- 5-fluorescein) [11]
conjugation yield ([1]; TFA salt, run 1): 36%

6-Methylheptanoyl-Dab(Boc)-Thr(tBu)-Dab(Boc)-Dab(NH2)-Dab(4-pentinoyl-Bpa-Met(O2)-Oic-Abu)- DLeu-Leu-Dab(Boc)-Dab(Boc)-Thr(tBu)-OH
crude mass [1, 8]: 73.4 mg | crude yield [1, 8]: 60%

T-G-R-A-K-R-R-M-Q-Y-N-R-R-ßAla-Lys(N3)-Cys(3-succinimidyl-N- 5-fluorescein) [10]
conjugation yield ([1]; TFA salt, run 1): 20%

6-Methylheptanoyl-Dab(4-pentinoyl-Bpa-Met(O2)-Oic-Abu)-Thr(tBu)-Dab(Boc)-OH
isolated mass [5]: 28.8 mg | isolated yield ([1]; whole synthesis, scale 100 µmol, TFA salt): 22%

Source: PMC8456958 (Angewandte Chemie (International Ed. in English), 2021)
